Reference: patent publication US20180369264A1, “COMBINATION OF A CARDIAC STEROID AND AN AKT INHIBITOR FOR THE TREATMENT OF CARDIOVASCULAR DISEASES AND DISORDERS” (YISSUM RESEARCH DEVELOPMENT COMPANY OF THE HEBREW …, priority 2015, published 2018)
For at least one compound, name, drawing or mass did not settle the structure.

System: wild-type zebrafish larvae heart
Format: in vivo, zebrafish (Danio rerio)
Details: 1 μM, added to swimming media
Experimental: Experiments were performed on wild-type (WT, AB strain) zebrafish (Danio rerio). The fish were maintained in accordance with the principles established by the NIH. […] The fish were kept in swimming medium (E3 medium) in small aquaria at 28° C. and maintained under a 14h: 10h light:dark cycle. The zebrafish larvae were maintained in the presence of 0.1% methylene blue (M9140, Sigma-Aldrich Inc, Israel) at 28° C. All measurements were taken in embryos at 72 hours post fertilization (hpf).
Ouabain, bufalin, digoxin, acetylcholine, carbachol, […] (pp2) and U0126 (1,4-diamino-2,3-dicyano-1,4-bis(2-aminophenylthio)butadiene) were purchased from Sigma-Aldrich Inc., Israel. […]
Physiological parameters of cardiovascular performance, as indicated hereinbelow, were evaluated in the zebrafish larvae. […] Sequential still frames were analyzed to capture ventricular end-systole and end-diastole images. […] The Ejection Fraction (EF) was determined by an independent estimate of ventricular volume. […] EF was then calculated according to the equation: EF=(EDV-ESV)/EDV*100. Heart rate (HR) was measured in beats per minute. Cardiac output (CO) was calculated according to the equation: CO=(EDV-ESV)*HR. A minimum of five sequential pairs of systolic and diastolic cycles were measured and analyzed in 9-12 larvae for each treatment.

SMILES: CC(=O)OCC[N+](C)(C)C [acetylcholine]
- effect on heart contractility and rate: decrease in heart contractility and rate
